Experimental data reported in paper PMC9135688.
Results are given in words; binding and its absence hold for the method and conditions named. Binding seen in cells or lysates may run through a third protein. Some results given as binding are weak or reduced against the parent protein; the word gives no strength. For some assays here: Where a sequence is shown, tags or fusion partners need not be part of it. One block for each molecule: values may come before it.

Protein sequences, listed by entry. Tags and fused reporters are not part of them.
UniProt P58801: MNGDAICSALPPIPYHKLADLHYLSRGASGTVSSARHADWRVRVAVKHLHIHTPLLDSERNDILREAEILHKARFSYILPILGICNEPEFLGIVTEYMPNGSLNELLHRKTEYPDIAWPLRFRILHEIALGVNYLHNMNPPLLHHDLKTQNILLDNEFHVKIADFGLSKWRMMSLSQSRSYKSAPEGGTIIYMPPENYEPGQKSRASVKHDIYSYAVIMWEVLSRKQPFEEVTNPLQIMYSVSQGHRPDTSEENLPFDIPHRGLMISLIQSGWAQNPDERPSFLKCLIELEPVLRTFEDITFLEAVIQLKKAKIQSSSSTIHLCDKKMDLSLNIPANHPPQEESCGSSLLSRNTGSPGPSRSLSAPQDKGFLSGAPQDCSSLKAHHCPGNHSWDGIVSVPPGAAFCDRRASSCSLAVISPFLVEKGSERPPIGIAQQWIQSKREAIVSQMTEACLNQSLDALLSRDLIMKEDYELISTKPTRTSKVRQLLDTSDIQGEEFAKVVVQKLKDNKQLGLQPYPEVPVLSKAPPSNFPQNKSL

How the values were obtained:
[1] = target: T1, Flag-tagged Card9 (mouse) (UniProt A2AIV8); test: co-IP; reciprocal Co-IP from HEK293T cells transfected with Flag-tagged Card9 and HA-tagged Ripk2; Western blot
T1 sequence: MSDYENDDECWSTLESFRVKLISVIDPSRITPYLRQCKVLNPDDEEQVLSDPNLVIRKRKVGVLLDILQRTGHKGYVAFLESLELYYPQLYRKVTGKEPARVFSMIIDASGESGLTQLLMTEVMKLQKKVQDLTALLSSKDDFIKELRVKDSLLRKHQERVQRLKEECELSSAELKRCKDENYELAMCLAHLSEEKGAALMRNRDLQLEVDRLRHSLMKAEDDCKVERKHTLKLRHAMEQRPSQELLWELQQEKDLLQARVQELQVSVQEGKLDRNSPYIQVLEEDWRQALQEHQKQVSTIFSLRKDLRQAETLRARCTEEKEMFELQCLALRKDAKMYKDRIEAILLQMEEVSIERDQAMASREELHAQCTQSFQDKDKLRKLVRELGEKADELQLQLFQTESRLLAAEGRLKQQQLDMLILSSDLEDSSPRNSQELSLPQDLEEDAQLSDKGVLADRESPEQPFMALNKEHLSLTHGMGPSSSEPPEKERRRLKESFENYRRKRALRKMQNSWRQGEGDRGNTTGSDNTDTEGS

[2] = target: T2, V5-Caspase-1 (in HEK293T) (mouse) (UniProt P29452); test: co-IP; HEK293T cells transfected with V5-Caspase-1, Flag-ASC and increasing amounts of HA-Ripk2 for 48 h; IP with anti-V5, IB with anti-Flag, anti-HA or anti-V5
T2 sequence: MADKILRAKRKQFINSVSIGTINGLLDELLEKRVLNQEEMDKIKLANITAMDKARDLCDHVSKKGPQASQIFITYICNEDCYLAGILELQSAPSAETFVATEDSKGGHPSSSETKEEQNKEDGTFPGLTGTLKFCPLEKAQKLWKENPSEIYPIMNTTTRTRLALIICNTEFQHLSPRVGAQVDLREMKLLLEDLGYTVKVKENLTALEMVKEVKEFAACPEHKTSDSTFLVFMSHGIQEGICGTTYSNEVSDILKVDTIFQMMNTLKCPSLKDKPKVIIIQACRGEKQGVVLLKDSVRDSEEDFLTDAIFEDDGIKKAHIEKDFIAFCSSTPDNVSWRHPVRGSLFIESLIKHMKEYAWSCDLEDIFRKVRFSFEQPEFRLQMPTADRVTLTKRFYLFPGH

[3] = target: T3, Card9 (mouse (endogenous in BMDMs)) (UniProt A2AIV8); test: co-IP; endogenous Card9 and Ripk2 in BMDMs treated with LPS; Western blot
T3 sequence: T1 sequence

[4] = target: T4, V5-Caspase-1 (in BMDMs) (mouse) (UniProt P29452); test: co-IP; BMDMs containing V5-Caspase-1 stimulated with LPS + ATP for the indicated times; IP with anti-V5, IB with anti-ASC or anti-Ripk2
T4 sequence: T2 sequence

[5] = target: T5, ASC (apoptosis associated speck-like protein containing CARD) (mouse (endogenous in BMDMs)) (UniProt Q9EPB4); test: co-IP; lysates of BMDMs (WT or Card9-/-; or transfected with Card9 over-expression plasmid) immunoprecipitated with anti-ASC, then immunoblot; cells unstimulated or primed with LPS 100 ng/ml 3 h, then ATP 5 mM 1 h
T5 sequence: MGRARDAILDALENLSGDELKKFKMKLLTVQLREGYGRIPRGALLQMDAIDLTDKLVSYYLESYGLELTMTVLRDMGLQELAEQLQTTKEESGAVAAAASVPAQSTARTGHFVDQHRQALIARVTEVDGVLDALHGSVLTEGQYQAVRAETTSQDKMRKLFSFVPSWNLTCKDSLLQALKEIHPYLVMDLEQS

binding [1]: binds
binding [2]: binds
Molecule: HA-tagged Ripk2 (from UniProt P58801 1-539)

binding [3]: binds
binding [4]: binds
Molecule: Ripk2 (from UniProt P58801 1-539)

binding [5]: binds
B1: pro-caspase-1 (protein, UniProt P29452 1-402)
chain: T2 sequence
